Experimental data reported in patent publication US20050202440A1.

Biological target: androgen receptor ligand binding domain (AR LBD) bound with DHT (chimp construct; LBD sequence stated identical to human)
Test: co-crystallization; crystal diffracted to 1.66 A

binding: binds
Binder: KHKILHRLLQDSS [GRIP1 NR Box 2 peptide]

These are yes or no findings as the source states them, for the method shown. Binding calls can cover weak binding; strength is not graded here.
